Laboratory results from publication PMC6158211.

Chains of the proteins cited; added tags and fusions are not shown. Residues count along the entry.
UniProt Q14653: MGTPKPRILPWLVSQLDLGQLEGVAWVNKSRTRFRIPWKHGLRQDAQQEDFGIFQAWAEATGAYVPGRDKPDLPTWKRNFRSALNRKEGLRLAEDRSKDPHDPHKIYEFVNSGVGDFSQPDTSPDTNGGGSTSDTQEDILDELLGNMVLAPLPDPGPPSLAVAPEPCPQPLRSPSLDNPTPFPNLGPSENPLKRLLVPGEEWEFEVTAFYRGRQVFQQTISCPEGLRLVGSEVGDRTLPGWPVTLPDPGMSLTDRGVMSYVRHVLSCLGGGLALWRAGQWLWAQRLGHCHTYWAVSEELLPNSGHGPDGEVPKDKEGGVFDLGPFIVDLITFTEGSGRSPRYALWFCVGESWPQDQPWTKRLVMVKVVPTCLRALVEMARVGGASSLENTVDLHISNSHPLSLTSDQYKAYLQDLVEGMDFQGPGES
UniProt Q13873, residues 27-1038: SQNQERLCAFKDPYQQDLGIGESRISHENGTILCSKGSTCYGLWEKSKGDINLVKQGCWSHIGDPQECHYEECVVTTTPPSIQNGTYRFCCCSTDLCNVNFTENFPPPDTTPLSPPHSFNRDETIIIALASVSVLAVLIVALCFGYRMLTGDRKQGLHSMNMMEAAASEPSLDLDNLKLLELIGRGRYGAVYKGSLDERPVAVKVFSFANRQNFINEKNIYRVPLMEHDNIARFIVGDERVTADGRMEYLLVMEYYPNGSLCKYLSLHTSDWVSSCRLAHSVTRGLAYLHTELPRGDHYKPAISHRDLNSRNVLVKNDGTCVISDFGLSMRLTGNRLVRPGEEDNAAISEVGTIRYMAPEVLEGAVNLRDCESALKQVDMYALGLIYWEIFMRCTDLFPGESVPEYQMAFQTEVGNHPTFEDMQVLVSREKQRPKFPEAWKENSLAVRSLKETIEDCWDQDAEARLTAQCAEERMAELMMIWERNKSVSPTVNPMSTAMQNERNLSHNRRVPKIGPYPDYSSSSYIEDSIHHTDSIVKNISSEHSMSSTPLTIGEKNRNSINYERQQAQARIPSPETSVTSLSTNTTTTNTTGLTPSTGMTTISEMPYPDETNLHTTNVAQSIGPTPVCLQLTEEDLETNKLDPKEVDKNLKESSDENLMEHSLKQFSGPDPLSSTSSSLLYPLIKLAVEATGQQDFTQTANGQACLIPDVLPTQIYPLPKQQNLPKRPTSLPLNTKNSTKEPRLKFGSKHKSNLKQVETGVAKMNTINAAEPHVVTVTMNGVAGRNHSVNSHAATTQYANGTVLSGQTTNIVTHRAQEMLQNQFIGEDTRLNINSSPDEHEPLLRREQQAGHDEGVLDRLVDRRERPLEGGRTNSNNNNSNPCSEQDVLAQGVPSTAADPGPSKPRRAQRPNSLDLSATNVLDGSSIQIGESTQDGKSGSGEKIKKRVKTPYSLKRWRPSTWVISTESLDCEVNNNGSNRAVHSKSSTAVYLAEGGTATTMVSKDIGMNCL
UniProt P07437: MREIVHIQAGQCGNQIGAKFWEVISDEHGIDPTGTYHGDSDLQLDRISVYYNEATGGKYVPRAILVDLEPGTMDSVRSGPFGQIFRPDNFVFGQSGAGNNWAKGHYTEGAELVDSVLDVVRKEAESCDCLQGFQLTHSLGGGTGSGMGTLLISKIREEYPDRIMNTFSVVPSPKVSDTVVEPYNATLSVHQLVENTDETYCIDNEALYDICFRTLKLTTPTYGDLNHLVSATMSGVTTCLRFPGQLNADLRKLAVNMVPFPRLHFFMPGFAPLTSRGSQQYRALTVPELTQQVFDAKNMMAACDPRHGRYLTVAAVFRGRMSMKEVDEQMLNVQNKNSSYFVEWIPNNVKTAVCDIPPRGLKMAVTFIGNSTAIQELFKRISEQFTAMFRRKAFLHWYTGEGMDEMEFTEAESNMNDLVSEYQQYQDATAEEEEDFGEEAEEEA
UniProt P68371: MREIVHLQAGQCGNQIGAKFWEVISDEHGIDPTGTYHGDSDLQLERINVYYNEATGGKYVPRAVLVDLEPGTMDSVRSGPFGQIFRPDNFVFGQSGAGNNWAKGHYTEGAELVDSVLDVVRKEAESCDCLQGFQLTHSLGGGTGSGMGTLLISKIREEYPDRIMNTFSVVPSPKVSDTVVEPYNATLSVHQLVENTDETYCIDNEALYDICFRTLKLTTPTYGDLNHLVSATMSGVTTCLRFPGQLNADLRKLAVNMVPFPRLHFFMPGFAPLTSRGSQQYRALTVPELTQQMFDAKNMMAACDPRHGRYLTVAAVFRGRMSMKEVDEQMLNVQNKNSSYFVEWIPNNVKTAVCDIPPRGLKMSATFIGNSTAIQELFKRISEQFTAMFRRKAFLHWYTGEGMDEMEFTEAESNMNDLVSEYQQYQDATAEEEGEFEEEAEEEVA
UniProt Q13885: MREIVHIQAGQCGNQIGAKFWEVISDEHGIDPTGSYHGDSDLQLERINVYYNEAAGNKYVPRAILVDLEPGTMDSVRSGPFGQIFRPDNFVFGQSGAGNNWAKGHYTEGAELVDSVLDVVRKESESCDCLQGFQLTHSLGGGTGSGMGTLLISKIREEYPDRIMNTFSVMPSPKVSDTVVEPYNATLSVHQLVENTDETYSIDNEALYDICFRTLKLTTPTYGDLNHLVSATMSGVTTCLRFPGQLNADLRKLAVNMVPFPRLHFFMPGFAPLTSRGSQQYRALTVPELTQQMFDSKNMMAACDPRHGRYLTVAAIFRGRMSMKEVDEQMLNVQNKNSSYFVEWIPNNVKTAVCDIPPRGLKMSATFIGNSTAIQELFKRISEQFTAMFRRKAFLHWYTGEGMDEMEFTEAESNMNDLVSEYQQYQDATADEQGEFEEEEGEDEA
UniProt Q8N122: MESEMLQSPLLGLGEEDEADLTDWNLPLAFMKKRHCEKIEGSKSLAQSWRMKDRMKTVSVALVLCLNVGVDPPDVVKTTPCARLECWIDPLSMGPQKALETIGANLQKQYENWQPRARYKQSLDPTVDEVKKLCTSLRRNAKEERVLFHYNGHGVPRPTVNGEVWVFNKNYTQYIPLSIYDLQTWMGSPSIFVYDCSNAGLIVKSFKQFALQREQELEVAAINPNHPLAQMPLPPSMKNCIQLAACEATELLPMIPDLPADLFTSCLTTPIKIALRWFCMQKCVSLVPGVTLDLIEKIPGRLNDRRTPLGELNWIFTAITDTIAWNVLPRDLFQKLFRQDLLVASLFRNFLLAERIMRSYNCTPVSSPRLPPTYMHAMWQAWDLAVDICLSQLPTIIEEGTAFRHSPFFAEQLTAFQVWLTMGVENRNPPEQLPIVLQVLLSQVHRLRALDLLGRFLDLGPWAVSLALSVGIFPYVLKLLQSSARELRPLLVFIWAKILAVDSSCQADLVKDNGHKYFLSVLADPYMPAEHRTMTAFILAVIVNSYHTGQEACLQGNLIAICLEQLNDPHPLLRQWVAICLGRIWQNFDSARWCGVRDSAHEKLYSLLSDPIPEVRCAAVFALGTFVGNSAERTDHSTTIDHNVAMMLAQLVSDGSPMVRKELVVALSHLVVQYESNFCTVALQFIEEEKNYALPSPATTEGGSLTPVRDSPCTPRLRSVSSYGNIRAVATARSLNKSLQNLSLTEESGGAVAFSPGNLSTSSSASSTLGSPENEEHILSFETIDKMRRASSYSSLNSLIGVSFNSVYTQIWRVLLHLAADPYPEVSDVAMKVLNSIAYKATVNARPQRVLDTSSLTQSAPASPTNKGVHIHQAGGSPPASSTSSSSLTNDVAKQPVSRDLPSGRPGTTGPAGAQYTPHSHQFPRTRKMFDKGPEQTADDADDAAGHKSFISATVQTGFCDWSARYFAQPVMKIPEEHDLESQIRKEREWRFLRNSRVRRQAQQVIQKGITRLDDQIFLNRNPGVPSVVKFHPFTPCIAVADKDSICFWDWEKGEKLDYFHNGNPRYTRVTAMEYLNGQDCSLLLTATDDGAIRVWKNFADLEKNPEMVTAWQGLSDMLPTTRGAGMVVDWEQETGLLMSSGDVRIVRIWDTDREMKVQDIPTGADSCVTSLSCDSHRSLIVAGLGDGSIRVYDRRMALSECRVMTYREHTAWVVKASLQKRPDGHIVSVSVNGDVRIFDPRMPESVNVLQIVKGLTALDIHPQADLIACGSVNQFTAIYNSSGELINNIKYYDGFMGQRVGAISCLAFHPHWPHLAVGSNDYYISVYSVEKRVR
UniProt P36894, residues 24-532: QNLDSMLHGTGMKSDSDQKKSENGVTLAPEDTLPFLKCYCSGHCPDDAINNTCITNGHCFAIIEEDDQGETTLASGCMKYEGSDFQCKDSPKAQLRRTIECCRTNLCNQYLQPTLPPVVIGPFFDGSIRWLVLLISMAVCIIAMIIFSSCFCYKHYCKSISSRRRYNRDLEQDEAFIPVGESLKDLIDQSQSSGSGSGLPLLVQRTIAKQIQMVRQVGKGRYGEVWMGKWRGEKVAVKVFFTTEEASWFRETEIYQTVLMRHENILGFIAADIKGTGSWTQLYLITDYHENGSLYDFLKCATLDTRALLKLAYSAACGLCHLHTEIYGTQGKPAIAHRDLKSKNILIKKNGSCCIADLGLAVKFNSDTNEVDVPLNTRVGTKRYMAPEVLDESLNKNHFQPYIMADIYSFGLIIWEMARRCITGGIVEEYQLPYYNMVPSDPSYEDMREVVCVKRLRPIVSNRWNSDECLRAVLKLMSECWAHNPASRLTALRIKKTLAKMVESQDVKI
UniProt Q3ZCM7: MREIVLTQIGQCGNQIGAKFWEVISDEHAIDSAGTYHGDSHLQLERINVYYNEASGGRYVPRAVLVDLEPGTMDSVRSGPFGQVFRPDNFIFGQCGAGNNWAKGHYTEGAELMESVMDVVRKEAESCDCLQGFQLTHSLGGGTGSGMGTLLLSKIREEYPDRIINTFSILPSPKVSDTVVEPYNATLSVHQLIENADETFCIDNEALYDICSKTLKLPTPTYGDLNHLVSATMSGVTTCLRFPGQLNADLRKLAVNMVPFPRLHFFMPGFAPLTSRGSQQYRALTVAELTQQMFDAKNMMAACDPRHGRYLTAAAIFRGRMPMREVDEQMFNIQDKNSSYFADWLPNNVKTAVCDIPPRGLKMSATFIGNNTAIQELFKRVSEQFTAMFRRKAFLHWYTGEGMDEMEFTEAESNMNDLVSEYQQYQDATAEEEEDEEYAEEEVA
UniProt Q9Y6K9: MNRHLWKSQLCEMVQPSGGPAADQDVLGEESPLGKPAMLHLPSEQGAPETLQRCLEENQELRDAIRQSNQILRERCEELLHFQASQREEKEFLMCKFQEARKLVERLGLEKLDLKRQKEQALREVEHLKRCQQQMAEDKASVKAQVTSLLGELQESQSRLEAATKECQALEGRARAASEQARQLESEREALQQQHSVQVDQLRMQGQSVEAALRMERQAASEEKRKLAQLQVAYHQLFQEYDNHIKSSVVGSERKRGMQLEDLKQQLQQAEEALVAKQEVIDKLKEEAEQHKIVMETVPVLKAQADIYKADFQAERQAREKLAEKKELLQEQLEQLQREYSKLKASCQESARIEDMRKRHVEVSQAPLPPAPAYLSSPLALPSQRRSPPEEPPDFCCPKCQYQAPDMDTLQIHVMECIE
UniProt P04350: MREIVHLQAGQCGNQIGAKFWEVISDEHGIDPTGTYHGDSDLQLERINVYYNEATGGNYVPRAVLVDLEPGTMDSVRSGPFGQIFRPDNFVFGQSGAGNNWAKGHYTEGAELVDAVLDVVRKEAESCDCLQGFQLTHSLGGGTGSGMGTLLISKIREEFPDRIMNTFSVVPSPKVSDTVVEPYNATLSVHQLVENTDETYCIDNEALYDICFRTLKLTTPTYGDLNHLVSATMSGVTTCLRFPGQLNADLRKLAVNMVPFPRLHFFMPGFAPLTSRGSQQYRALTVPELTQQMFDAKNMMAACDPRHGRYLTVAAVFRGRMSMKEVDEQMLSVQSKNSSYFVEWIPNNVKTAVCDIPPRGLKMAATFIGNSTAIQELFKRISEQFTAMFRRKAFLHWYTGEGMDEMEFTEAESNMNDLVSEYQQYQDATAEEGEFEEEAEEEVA
UniProt P37173, residues 23-567: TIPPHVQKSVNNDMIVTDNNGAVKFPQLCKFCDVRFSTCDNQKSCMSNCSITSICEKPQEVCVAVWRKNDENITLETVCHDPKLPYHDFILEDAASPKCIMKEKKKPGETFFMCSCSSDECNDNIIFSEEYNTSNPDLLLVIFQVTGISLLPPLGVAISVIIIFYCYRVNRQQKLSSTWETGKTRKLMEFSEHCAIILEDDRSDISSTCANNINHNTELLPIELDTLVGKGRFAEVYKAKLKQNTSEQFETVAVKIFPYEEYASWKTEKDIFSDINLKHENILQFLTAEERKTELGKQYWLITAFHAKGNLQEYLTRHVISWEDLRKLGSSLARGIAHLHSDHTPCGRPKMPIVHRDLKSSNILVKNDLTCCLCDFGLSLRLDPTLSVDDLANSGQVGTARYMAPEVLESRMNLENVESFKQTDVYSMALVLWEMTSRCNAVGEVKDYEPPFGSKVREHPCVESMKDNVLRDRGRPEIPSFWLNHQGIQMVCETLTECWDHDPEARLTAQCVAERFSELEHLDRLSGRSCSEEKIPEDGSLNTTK

The substances below were run against T1, 3xFlag-UBL3 (wild-type ubiquitin-like 3 / membrane-anchored Ub-fold protein) (UniProt O95164) (assay: affinity purification with mass spectrometry; 3xFlag-UBL3, 3xFlag-UBL3C113/114A or 3xFlag empty vector expressed in MDA-MB-231 cells; 1% Triton buffer lysate, anti-Flag M2 affinity gel 16 h at 4 °C, on-bead digestion, LC-MS/MS with label-free quantification, triplicate pull-downs).
T1 sequence: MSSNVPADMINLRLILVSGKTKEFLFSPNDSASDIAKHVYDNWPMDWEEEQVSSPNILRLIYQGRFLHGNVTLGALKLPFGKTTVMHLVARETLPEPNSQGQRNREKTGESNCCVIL

binding, binds:
APLP2 (from UniProt Q06481 32-763), IRF3 (from UniProt Q14653 1-427), TUBB3 (from UniProt Q13509 1-450), BMPR2 (from UniProt Q13873 27-1038) (receptor), TUBB (from UniProt P07437 1-444), TUBB4B (from UniProt P68371 1-445), TUBB2A (from UniProt Q13885 1-445), RPTOR (from UniProt Q8N122 1-1335), BMPR1A (from UniProt P36894 24-532) (receptor), NPC1 (from UniProt O15118 23-1278), TUBB8 (from UniProt Q3ZCM7 1-444), NOTCH3 (from UniProt Q9UM47 40-2321) (receptor), IKBKG (from UniProt Q9Y6K9 1-419), TUBB6 (from UniProt Q9BUF5 1-446), TUBA4A (from UniProt P68366 1-448), NOTCH1 (from UniProt P46531 19-2555) (receptor), TUBA1C (from UniProt Q9BQE3 1-449), TUBB4A (from UniProt P04350 1-444), NOTCH2 (from UniProt Q04721 26-2471) (receptor), TGFBR2 (from UniProt P37173 23-567) (receptor), KRAS (from UniProt P01116 1-189)

Results are given in words; binding and its absence hold for the method and conditions named. Binding seen in cells or lysates may run through a third protein. A yes stands for co-enrichment or nearness to the bait. Other partners may have been found. Sequences can lack the tags named with a protein.
